Measurements: article doi:10.1101/2022.03.07.483315
Changes are numbered by the printed parent chain. These are yes or no findings as the source states them, for the method shown. Some binding calls cover weakened binding; strength is not graded here. One block for each molecule: values may come before it.

The chains behind the UniProt entries cited, without tags or fusion partners. Where a name states a change or a piece, a line headed by the entry shows the natural chain unless it says otherwise.
UniProt P47110: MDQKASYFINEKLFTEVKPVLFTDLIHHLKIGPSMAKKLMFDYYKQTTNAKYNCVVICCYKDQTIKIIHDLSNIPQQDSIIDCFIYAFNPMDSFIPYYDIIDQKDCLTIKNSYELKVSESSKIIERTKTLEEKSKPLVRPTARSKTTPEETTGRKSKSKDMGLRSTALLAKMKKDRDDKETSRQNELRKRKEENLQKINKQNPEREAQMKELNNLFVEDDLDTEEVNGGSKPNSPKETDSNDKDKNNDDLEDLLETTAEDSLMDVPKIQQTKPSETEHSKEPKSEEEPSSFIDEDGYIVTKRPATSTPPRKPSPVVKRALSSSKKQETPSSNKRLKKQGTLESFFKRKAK

Assays:
[1] = target: T1, Pol3 D941Y, catalytic subunit of budding yeast DNA polymerase δ (budding yeast) (UniProt P15436); assay: co-purification
T1 sequence: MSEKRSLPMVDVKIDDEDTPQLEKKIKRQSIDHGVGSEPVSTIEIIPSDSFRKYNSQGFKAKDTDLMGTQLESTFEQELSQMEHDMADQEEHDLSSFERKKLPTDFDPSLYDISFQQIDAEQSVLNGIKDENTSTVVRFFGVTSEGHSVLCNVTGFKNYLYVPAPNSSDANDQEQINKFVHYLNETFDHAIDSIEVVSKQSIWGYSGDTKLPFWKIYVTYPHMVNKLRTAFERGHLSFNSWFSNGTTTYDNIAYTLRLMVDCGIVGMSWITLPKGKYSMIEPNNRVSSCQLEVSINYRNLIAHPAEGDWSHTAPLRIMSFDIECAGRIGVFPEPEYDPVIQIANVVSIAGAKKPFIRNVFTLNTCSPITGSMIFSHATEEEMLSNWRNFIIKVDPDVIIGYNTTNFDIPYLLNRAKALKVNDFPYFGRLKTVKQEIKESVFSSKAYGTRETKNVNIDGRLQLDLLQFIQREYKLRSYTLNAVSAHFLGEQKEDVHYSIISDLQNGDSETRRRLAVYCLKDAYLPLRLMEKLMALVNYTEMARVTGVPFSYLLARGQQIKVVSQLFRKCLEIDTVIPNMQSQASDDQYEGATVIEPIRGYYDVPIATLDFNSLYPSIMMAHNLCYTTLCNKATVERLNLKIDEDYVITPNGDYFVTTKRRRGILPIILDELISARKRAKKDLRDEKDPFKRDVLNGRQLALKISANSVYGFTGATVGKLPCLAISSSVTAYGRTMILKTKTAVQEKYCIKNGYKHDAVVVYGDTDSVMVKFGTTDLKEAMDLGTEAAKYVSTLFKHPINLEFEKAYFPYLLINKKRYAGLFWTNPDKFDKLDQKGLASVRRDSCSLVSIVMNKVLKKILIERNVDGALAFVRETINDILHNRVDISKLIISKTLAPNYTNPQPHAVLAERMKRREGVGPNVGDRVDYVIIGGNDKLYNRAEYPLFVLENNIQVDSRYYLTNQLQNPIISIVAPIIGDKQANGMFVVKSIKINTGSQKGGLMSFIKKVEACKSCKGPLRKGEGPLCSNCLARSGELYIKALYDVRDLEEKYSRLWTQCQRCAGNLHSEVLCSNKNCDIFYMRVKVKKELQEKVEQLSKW

[2] = target: T2, Pol3, catalytic subunit of budding yeast DNA polymerase δ (wildtype) (budding yeast) (UniProt P15436); assay: co-purification
T2 sequence: T1 sequence with Y941D

binding [1]: binds | binding [2]: binds
Molecule: Pol32, subunit of budding yeast DNA polymerase δ (from UniProt P47110 1-350)

binding [1]: binds | binding [2]: binds
B1: Pol31, subunit of budding yeast DNA polymerase δ (protein, UniProt P46957 1-487)
chain: MDALLTKFNEDRSLQDENLSQPRTRVRIVDDNLYNKSNPFQLCYKKRDYGSQYYHIYQYRLKTFRERVLKECDKRWDAGFTLNGQLVLKKDKVLDIQGNQPCWCVGSIYCEMKYKPNVLDEVINDTYGAPDLTKSYTDKEGGSDEIMLEDESGRVLLVGDFIRSTPFITGVVVGILGMEAEAGTFQVLDICYPTPLPQNPFPAPIATCPTRGKIALVSGLNLNNTSPDRLLRLEILREFLMGRINNKIDDISLIGRLLICGNSVDFDIKSVNKDELMISLTEFSKFLHNILPSISVDIMPGTNDPSDKSLPQQPFHKSLFDKSLESYFNGSNKEILNLVTNPYEFSYNGVDVLAVSGKNINDICKYVIPSNDNGESENKVEEGESNDFKDDIEHRLDLMECTMKWQNIAPTAPDTLWCYPYTDKDPFVLDKWPHVYIVANQPYFGTRVVEIGGKNIKIISVPEFSSTGMIILLDLETLEAETVKIDI
